Experimental data reported in article PMC12245028.
Results are given in words; binding and its absence hold for the method and conditions named. Binding seen in cells or lysates may run through a third protein. These calls come from enrichment with a bait or labelling near it, and not all partners need be listed.

Chains of the proteins cited; added tags and fusions are not shown.
UniProt P30291: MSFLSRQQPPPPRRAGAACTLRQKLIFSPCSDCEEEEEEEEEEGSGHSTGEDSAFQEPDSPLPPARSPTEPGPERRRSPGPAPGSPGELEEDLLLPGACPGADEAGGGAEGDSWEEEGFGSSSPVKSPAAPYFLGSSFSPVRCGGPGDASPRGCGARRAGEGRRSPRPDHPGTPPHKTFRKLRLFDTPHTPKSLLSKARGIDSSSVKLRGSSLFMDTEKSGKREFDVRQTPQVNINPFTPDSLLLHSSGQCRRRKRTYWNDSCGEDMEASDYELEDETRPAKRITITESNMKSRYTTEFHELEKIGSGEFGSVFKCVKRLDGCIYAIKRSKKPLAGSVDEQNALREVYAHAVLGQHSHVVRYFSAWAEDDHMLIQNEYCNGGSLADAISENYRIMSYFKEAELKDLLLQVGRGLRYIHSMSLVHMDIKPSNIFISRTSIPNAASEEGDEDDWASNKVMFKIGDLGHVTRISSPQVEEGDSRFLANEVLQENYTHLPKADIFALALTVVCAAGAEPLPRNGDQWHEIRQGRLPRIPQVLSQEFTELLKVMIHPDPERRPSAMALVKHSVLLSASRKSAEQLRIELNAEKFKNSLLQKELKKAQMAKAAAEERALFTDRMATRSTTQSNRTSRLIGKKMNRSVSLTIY
UniProt Q04206: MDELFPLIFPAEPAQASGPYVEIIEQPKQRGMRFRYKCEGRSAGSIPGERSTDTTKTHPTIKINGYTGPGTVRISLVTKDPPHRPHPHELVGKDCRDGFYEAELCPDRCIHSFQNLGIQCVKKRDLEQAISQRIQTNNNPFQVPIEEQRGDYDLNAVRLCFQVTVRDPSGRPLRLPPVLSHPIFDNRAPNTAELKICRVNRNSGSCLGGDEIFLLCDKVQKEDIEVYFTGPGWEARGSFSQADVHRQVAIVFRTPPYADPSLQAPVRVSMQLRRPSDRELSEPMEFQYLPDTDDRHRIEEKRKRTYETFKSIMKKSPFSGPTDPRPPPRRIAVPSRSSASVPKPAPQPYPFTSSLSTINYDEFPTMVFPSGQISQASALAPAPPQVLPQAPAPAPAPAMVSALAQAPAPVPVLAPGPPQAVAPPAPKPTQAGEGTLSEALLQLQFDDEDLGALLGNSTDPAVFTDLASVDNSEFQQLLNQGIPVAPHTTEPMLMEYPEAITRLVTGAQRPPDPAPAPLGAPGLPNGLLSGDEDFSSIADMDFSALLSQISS

Biological target: HA‐WEE1^WT (UniProt P30291)
Experiment: affinity purification with mass spectrometry; anti-HA antibody added to lysate of 293T cells transfected with HA-WEE1 (24 h); IgG as negative control; label-free quantitative proteomics; hits by HA/IgG ratio >1.5

## NF‐κB p65 subunit (RELA, Transcription factor p65) (from UniProt Q04206 1-551)
  binding: binds
